Publication PMC3490818

Target: T1, Signal peptide peptidase (human (endogenous in HEK293)) (UniProt Q8TCT9)
T1 sequence: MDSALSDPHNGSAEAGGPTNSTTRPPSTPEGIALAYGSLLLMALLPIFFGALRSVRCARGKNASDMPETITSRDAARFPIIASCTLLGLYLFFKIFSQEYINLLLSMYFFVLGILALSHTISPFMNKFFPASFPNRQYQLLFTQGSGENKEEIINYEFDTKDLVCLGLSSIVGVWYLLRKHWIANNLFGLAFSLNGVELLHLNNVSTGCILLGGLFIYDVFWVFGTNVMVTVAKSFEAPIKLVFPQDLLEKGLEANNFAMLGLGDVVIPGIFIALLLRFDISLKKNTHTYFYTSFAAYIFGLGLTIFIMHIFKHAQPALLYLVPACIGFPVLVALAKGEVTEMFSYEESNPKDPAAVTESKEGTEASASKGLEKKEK
Assay: affinity purification with mass spectrometry; anti-SPP-CT antibody cross-linked to Protein G sepharose; HEK293 microsomal membranes solubilized in 0.5% DDM in 25 mM HEPES pH 7.4, 150 mM NaCl, 4 mM EDTA; washes with 0.02% DDM and one wash with 300 mM NaCl; elution at pH 3.0; control with antibody pre-saturated with 100 ug/ml cognate peptide; iTRAQ-116 (control) against iTRAQ-117 (specific)

binding: binds
Substance: Vigilin (from UniProt Q00341-1 1-1268)

No constants are given. Whether binding was seen depends on the method and setting. Binding seen in cells or lysates may run through a third protein. These calls come from enrichment with a bait or labelling near it, and not all partners need be listed.
